Source: PubChem BioAssay AID1259254 (NCATS, 2017)
In all, the deposit lists about 59,000 reagents; below is an unselected part. In the full data, about 1,550 (2.6%) were called active. 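G2 share is only a proxy for re-replication; each gene was hit by three separate siRNAs, and active genes were retested.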 Raw values vary from plate to plate and are shown uncorrected. The numbers tell different reagents against one gene apart. Not given: the amount of reagent.

- Aim: 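Gene knock-downs that lead to re-replication, shown by excess G2 DNA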 (primary screen)
- Cell system: human HCT116 colorectal cancer cells
- Knock-down reagent: single siRNA against human genes
- Time to read-out: 3 days
- Read-out: 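Imaged Hoechst DNA stain sorts each cell into a cycle phase by DNA amount; per plate, G2 fraction set to 0% for non-targeting and 100% for GMNN siRNA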
- Scale: G2 robust z-score and G2 cells, % of GMNN control: higher = more G2 cells, more excess DNA replication; raw share of cells in G2: higher = larger share of cells with G2 DNA content
- Active means: 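An siRNA counts as active if its G2 robust z-score lies at least 5 MADs above the screen median; here such calls match roughly 38% of GMNN control or more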

gene	siRNA no.	G2 robust z-score	G2 cells, % of GMNN control	raw share of cells in G2 (%)	activity call
TIMCC	1	-0.956	-3.76	2.49	inactive
TIMCC	2	3.73	29.2	12.2	inactive
TIMCC	3	-0.729	-2.16	2.24	inactive
VWF	1	3.52	27.7	14.5	inactive
VWF	2	-0.825	-2.84	3.52	inactive
VWF	3	-0.123	2.11	3.87	inactive
ASB16	1	-0.346	0.535	4.31	inactive
ASB16	2	0.472	6.29	4.97	inactive
ASB16	3	0.968	9.78	6.02	inactive
ATP6V1G3	1	0.703	7.91	7.47	inactive
ATP6V1G3	2	0.201	4.38	6.85	inactive
ATP6V1G3	3	0.419	5.92	8.42	inactive
MSANTD3	1	0.677	7.73	7.37	inactive
MSANTD3	2	0.681	7.76	5.43	inactive
MSANTD3	3	-0.724	-2.12	2.25	inactive
ERBB4	1	-0.866	-3.12	4.58	inactive
ERBB4	2	-1.4	-6.89	3.09	inactive
ERBB4	3	0.4	5.78	6.06	inactive
TRPM7	1	-1.49	-7.51	2.55	inactive
TRPM7	2	8.38	61.9	25.7	active
TRPM7	3	-1.05	-4.44	2.64	inactive
BFAR	1	2.3	19.2	11.2	inactive
BFAR	2	2.66	21.7	12.7	inactive
BFAR	3	-0.735	-2.2	2.56	inactive
GLP1R	1	-1.02	-4.19	4.35	inactive
GLP1R	2	-1.03	-4.27	3.02	inactive
GLP1R	3	1.06	10.4	6.47	inactive
BLTP3A	1	0.36	5.5	5.57	inactive
BLTP3A	2	-0.464	-0.295	4.15	inactive
BLTP3A	3	-0.242	1.26	3.61	inactive
IQCE	1	0.234	4.62	4.91	inactive
IQCE	2	-1.08	-4.65	2.66	inactive
IQCE	3	-0.466	-0.309	3.81	inactive
RFPL4AL1	1	0.184	4.26	5.77	inactive
RFPL4AL1	2	0.0402	3.25	4.32	inactive
RFPL4AL1	3	0.383	5.66	5.24	inactive
ACKR1	1	0.142	3.97	4.48	inactive
ACKR1	2	5.11	38.9	19.8	active
ACKR1	3	-0.585	-1.15	4.11	inactive
DIS3L2	1	6.64	49.7	26.3	active
DIS3L2	2	-0.402	0.136	4.53	inactive
DIS3L2	3	-0.252	1.19	6.23	inactive
GSTM4	1	-1.21	-5.52	3.04	inactive
GSTM4	2	0.642	7.48	6.95	inactive
GSTM4	3	0.456	6.17	8.03	inactive
SLC37A1	1	1.79	15.6	9.99	inactive
SLC37A1	2	-0.474	-0.365	3.66	inactive
SLC37A1	3	0.604	7.22	9.23	inactive
SLC9A9	1	-0.117	2.14	5.8	inactive
SLC9A9	2	-0.204	1.53	6.57	inactive
SLC9A9	3	2.48	20.4	11.7	inactive
UBE2U	1	1.25	11.8	11.6	inactive
UBE2U	2	-0.582	-1.13	4.29	inactive
UBE2U	3	0.544	6.79	7.56	inactive
LAMB4	1	1.31	12.2	9.76	inactive
LAMB4	2	0.501	6.49	6.82	inactive
LAMB4	3	-0.0089	2.9	4.26	inactive
C16orf86	1	-0.111	2.19	5.57	inactive
C16orf86	2	0.232	4.6	5.35	inactive
C16orf86	3	-0.00506	2.93	4.68	inactive
VCAN	1	-0.708	-2.01	2.66	inactive
VCAN	2	0.427	5.97	7.64	inactive
VCAN	3	-0.154	1.88	3.79	inactive
HEPACAM	1	1	10	10.7	inactive
HEPACAM	2	0.427	5.97	6.89	inactive
HEPACAM	3	0.989	9.93	8.87	inactive
TRAK2	1	-0.0795	2.41	5.63	inactive
TRAK2	2	-0.407	0.104	4.66	inactive
TRAK2	3	1.95	16.7	7.1	inactive

Laid out differently: entries from further up
ASB16 #1 | G2 robust z-score: -0.346; G2 cells, % of GMNN control: 0.535; raw share of cells in G2 (%): 4.31; activity call: inactive
ASB16 #2 | G2 robust z-score: 0.472; G2 cells, % of GMNN control: 6.29; raw share of cells in G2 (%): 4.97; activity call: inactive
ASB16 #3 | G2 robust z-score: 0.968; G2 cells, % of GMNN control: 9.78; raw share of cells in G2 (%): 6.02; activity call: inactive
ATP6V1G3 #1 | G2 robust z-score: 0.703; G2 cells, % of GMNN control: 7.91; raw share of cells in G2 (%): 7.47; activity call: inactive
ATP6V1G3 #2 | G2 robust z-score: 0.201; G2 cells, % of GMNN control: 4.38; raw share of cells in G2 (%): 6.85; activity call: inactive
ATP6V1G3 #3 | G2 robust z-score: 0.419; G2 cells, % of GMNN control: 5.92; raw share of cells in G2 (%): 8.42; activity call: inactive
MSANTD3 #1 | G2 robust z-score: 0.677; G2 cells, % of GMNN control: 7.73; raw share of cells in G2 (%): 7.37; activity call: inactive
MSANTD3 #2 | G2 robust z-score: 0.681; G2 cells, % of GMNN control: 7.76; raw share of cells in G2 (%): 5.43; activity call: inactive
MSANTD3 #3 | G2 robust z-score: -0.724; G2 cells, % of GMNN control: -2.12; raw share of cells in G2 (%): 2.25; activity call: inactive
ERBB4 #1 | G2 robust z-score: -0.866; G2 cells, % of GMNN control: -3.12; raw share of cells in G2 (%): 4.58; activity call: inactive
ERBB4 #2 | G2 robust z-score: -1.4; G2 cells, % of GMNN control: -6.89; raw share of cells in G2 (%): 3.09; activity call: inactive
ERBB4 #3 | G2 robust z-score: 0.4; G2 cells, % of GMNN control: 5.78; raw share of cells in G2 (%): 6.06; activity call: inactive
